In PubChem BioAssay AID504467 (National Center for Advancing Translational Sciences (NCATS), 2011):
In all, about 330,000 compounds went through this assay and about 7,700 (2.3%) were called active. The shares of active, inactive and inconclusive entries below differ from those in the screen. Calls come from the whole dose curve; as a rule, active = well fitted inhibition curve with a large enough effect; inconclusive = small, poorly fitted or top-dose-only effect, or effect the other way; inactive = flat fitted curve, though single readings scatter. Potencies beside an inconclusive call are fits to weak or partial responses and may not hold up.

Experiment: qHTS screen for small molecules that inhibit ELG1-dependent DNA repair in human embryonic kidney (HEK293T) cells expressing luciferase-tagged ELG1; note: nearly all actives have a fitted effect of over 55% in size
Details: HEK293T ELG1-luciferase reporter, luminescence, 16 h, DNA damage induced by 5-fluorouridine; activity change, negative = inhibition: at 46.1 µM (top of the series)
Method in brief: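 Reporter activity after DNA damage by 5-fluorouridine is monitored. Compound-treated cells incubate 16 hr at 37 °C, then ONE-Glo is added for 30 min before luminescence reading.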
% is set by controls: 0 for no effect and ±100 for the full control effect; potency is the fitted concentration of half-maximal effect.

Compound | activity change, negative = inhibition | Potency
COc1cc(OC)cc(C(=O)NCC(=O)NCC(c2ccco2)N2CCCCC2)c1 (stereo not drawn) | inactive: 4.79% | –
O=c1cc(-c2ccccc2)oc2ccc(Br)cc12 | – | inconclusive: 2.91 µM [activator, full curve]
CC(C)(C)c1ccc(/C=C2\Oc3c(ccc(O)c3CN3CCN(CCO)CC3)C2=O)cc1 | – | inconclusive: 18.3 µM [inhibitor, single point]
COc1ccc(-c2csc3ncnc(N4CCN(C(=O)c5ccco5)CC4)c23)cc1 | – | active: 7.3 µM
O=C(Cc1ccc(Cl)cc1)N/N=C/c1cccc(O)c1 | inactive: -8.07% | –
CCCCn1c(SCC(N)=O)nc2ccc(N3CCOCC3)cc2c1=O | – | inconclusive: 29.1 µM [inhibitor, single point]
CC1CN(S(=O)(=O)c2ccc(C(=O)N(CCCN(C)C)c3nc4c(Cl)cccc4s3)cc2)CC(C)O1 (stereo not drawn) | inactive: -0.61% | –
COC(=O)c1cccc(NS(=O)(=O)c2ccc(OC)c(OC)c2)c1C | – | inconclusive: 25.9 µM [inhibitor, partial curve]
CC1CCN(C(=O)c2ccc(CNS(=O)(=O)c3ccc(C(C)(C)C)cc3)cc2)CC1 | – | inconclusive: 23.1 µM [inhibitor, single point]
COc1ccc(C(CC(=O)O)NC(=O)COc2ccc(C)cc2)cc1OC (stereo not drawn) | inactive: 10% | –
Cc1ccc2cc(/C=C(\C#N)C(N)=O)c(N3CCCCC3)nc2c1 | – | inconclusive: 23.1 µM [inhibitor, partial curve]
CC(C)(C)C1(C)OC(=O)C(=Cc2ccc(OCC(=O)Nc3ccccc3)cc2)C(=O)O1 (stereo not drawn) | – | inconclusive: 20.6 µM [activator, single point]
O=C(COc1ccc(Cl)cc1)N1CCN(c2ccc([N+](=O)[O-])c(N3CCCCC3)c2)CC1 | – | inconclusive: 20.6 µM [inhibitor, single point]
Cc1ccccc1-n1nnnc1SCc1csc(-c2ccccc2)n1 | – | inconclusive: 29.1 µM [inhibitor, single point]
CCC(=O)Nc1c(S(=O)(=O)c2ccc(C)cc2)c2nc3ccccc3nc2n1C(C)c1ccccc1 (stereo not drawn) | – | inconclusive: 20.6 µM [inhibitor, single point]
O=S(=O)(Nc1ccc(-c2cn3ccccc3n2)cc1)c1ccccc1 | – | inconclusive: 6.51 µM [activator, full curve, poor fit]
Cc1c(CC(=O)N2CCN(C(=O)C3COc4ccccc4O3)CC2)c(=O)oc2cc(O)cc(O)c12 (stereo not drawn) | – | inconclusive: 13 µM [inhibitor, partial curve, poor fit]
COC(=O)C1=C(C)NC(=S)NC1c1ccc(-c2cc(Cl)ccc2Cl)o1 (stereo not drawn) | – | inconclusive: 16.4 µM [inhibitor, partial curve, poor fit]
Cc1ccc(C(CNS(=O)(=O)c2ccc([N+](=O)[O-])cc2)N2CCN(C)CC2)cc1 (stereo not drawn) | – | inconclusive: 20.6 µM [activator, single point]
Cc1nc(N2CCN(c3ccccn3)CC2)c2c(C)c(C(=O)N3CCN(c4ccccc4F)CC3)sc2n1 | – | inconclusive: 29.1 µM [inhibitor, single point]
Cc1ccccc1N1CCN(S(=O)(=O)CC23CCC(CC2=O)C3(C)C)CC1 (stereo not drawn) | – | inconclusive: 29.1 µM [inhibitor, single point]
COc1cccc(N=CC=C2OC(C)(C)C(C)(C)O2)c1 | – | inconclusive: 7.3 µM [activator, partial curve, poor fit]
Cc1nc(NC(=O)c2cc3c(s2)CCCCC3)sc1C(=O)N(C)C | – | inconclusive: 13 µM [activator, partial curve]

Compound | activity change, negative = inhibition | Potency
CN(CCCC(=O)N1CCCC(C(N)=O)C1)S(=O)(=O)c1ccc(F)cc1 (stereo not drawn) | – | inconclusive: 29.1 µM [inhibitor, single point]
CCN(CC)CCCNC(=O)c1sc2ncn(CC(=O)Nc3ccc(C)c(Cl)c3)c(=O)c2c1C | – | inconclusive: 29.1 µM [activator, single point]
COc1ccc(CCNc2oc(Cc3cccc4ccccc34)nc2C#N)cc1OC | – | active: 16.4 µM
O=C(C1CCCN(c2nnc(-n3cccc3)s2)C1)N1CCN(c2ccccc2)CC1 (stereo not drawn) | – | active: 16.4 µM
Cc1ccc(C(=O)Nc2cccc3[nH]c(C(F)(F)F)nc23)cc1 | – | inconclusive: 3.66 µM [inhibitor, full curve]
COC(=O)c1cc(-c2ccc(OC)cc2)n[nH]1 | – | inconclusive: 20.6 µM [activator, partial curve]
CCC(NC(=O)c1cc(COc2cc(C)c(Cl)c(C)c2)on1)c1ccncc1 (stereo not drawn) | inactive: -17.4% | –
CC1CCC/C(=N/Nc2nc3ccccc3s2)C1 (stereo not drawn) | – | inconclusive: 5.17 µM [activator, single point]
COc1ccc(Cl)cc1N(C)C(=O)CCc1nc(-c2ccc(C)cc2)no1 | – | inconclusive: 35.5 µM [inhibitor, single point]
CCOc1ccc(-c2csc3nc[nH]c(=O)c23)cc1 | – | inconclusive: 23.1 µM [activator, single point]
CCN1CCN(c2oc(COc3ccc(-c4ccccc4)cc3)nc2C#N)CC1 | – | inconclusive: 18.4 µM [inhibitor, single point]
O=C(COc1ccc2ccc(=O)oc2c1)Nc1c(Cl)cccc1C(F)(F)F | inactive: -7.35% | –
COc1cc(/C=C2/C(=N)N3C(SC)=NSC3=NC2=O)ccc1OC(=O)c1ccco1 | – | inconclusive: 23.1 µM [activator, partial curve]
Cc1ccc(OCCCN2CCOCC2)c([N+](=O)[O-])c1 | – | inconclusive: 18.4 µM [activator, partial curve]
Cn1c(=O)c2c(nc(NCCc3ccccc3)n2Cc2ccc(F)cc2)n(C)c1=O | – | active: 11.6 µM
COCCOC(=O)c1c(C)oc2ccc(NS(=O)(=O)c3ccc(F)cc3)cc12 | – | inconclusive: 23.1 µM [inhibitor, partial curve, poor fit]
Cc1cc(O)c(C(C)C)cc1NC(=O)Nc1cccc2ccccc12 | – | inconclusive: 13 µM [inhibitor, partial curve, poor fit]
Cc1cc(-c2ccccc2)nc2cc(C(=O)OC(C)C)nn12 | inactive: -14.7% | –
COc1ccc(S(=O)(=O)Nc2cc3c4c(oc3c3ccccc23)CCCC4=O)cc1 | – | inconclusive: 10.3 µM [inhibitor, partial curve]
O=C(COC(=O)Cn1cnc2ccccc21)Nc1cc2c(cc1Cl)C(=O)c1ccccc1C2=O | – | inconclusive: 11.6 µM [activator, partial curve]
CN1C(=O)NC(c2ccc(O)cc2)C2=C1CN(c1ccc(O)cc1)C2=O (stereo not drawn) | inactive: 8.61% | –
COc1ccccc1Oc1nc(C)c(C(C)=O)cc1C#N | – | inconclusive: 23.1 µM [inhibitor, single point]
CCc1ccc(NC(=O)Cc2ccc(OC)cc2)cc1 | – | inconclusive: 14.6 µM [activator, partial curve, poor fit]

Some of the entries above in another layout.
Compound	activity change, negative = inhibition	Potency
CN1C(=O)NC(c2ccc(O)cc2)C2=C1CN(c1ccc(O)cc1)C2=O (stereo not drawn)	inactive: 8.61%	–
COc1ccccc1Oc1nc(C)c(C(C)=O)cc1C#N	–	inconclusive: 23.1 µM [inhibitor, single point]
CCc1ccc(NC(=O)Cc2ccc(OC)cc2)cc1	–	inconclusive: 14.6 µM [activator, partial curve, poor fit]

Later entries.

Compound | activity change, negative = inhibition | Potency
Cc1ccccc1OCC(O)CN1CCN(CCN2C(=O)c3cccc4cccc(c34)C2=O)CC1 (stereo not drawn) | – | active: 23.1 µM
COc1cccc(-c2ncc3ccccc3c2COC(=O)c2ccco2)c1 | – | inconclusive: 16.4 µM [inhibitor, single point]
C=CC(n1cncn1)C(O)(c1ccccc1)c1ccccc1 (stereo not drawn) | inactive: 3.67% | –
Cc1cc(C)c(NC(=O)CN(C)C(=O)C2CC(=O)N(c3cccc4ccccc34)C2)c(C)c1 (stereo not drawn) | inactive: -2.21% | –
CCOC(=O)c1cnc(SC)nc1Nc1cccc2ccccc12 | inactive: -28.4% | –
CNc1nnc(Sc2ncccc2[N+](=O)[O-])s1 | inactive: -9.75% | –
CN(Cc1nc(-c2ccccn2)no1)S(=O)(=O)c1ccccc1 | – | inconclusive: 14.6 µM [activator, partial curve]
Cc1cc(C)c(C)c(S(=O)(=O)NCC(=O)NCC2CCCCC2)c1C | inactive: -6.83% | –
Cc1cccc(C(=O)OCC(=O)NC2CC2)c1O | – | inconclusive: 18.3 µM [activator, single point]
COc1cccc(C2c3[nH]c4ccccc4c3CCN2Cc2cccn2-c2ncccn2)c1 (stereo not drawn) | – | inconclusive: 18.3 µM [inhibitor, single point]
O=C1CCN(CCc2ccccc2)CCN1[C@H](COc1ccccc1)Cc1ccccc1 | inactive: -10.5% | –
CCN(CC)C(=O)[C@H]1C[C@H](CC(=O)NCCCn2ccnc2)C(=O)N2CCc3c([nH]c4cc(CCC(=O)N(C)C)ccc34)[C@]12C | inactive: 15.2% | –
CCc1ccc(NC(=O)C2C3CCC(O3)C2C(=O)O)cc1 (stereo not drawn) | – | inconclusive: 20.6 µM [activator, partial curve]
COC(=O)CNC(=O)C(NC(=O)OCc1ccccc1)C(C)C (stereo not drawn) | inactive: 3.73% | –
Cc1cc(Oc2ccc(Cl)cc2)nc(-c2ccccn2)n1 | – | inconclusive: 16.4 µM [inhibitor, single point]
COc1cc(C(=O)OCC(=O)Nc2ccc(F)cc2F)cc(OC)c1OC | – | inconclusive: 18.4 µM [inhibitor, partial curve, poor fit]
O=C(COc1ccc(Cl)cc1)N(Cc1ccccc1)c1nc(-c2ccccc2)cs1 | – | inconclusive: 29.1 µM [activator, single point]
CC(C)(C)SCCNC(=O)COc1ccccc1 | – | inconclusive: 29.1 µM [activator, single point]
O=C(/C=C/c1cccs1)NC(=S)NNC(=O)c1ccccc1O | – | inconclusive: 3.66 µM [inhibitor, full curve]
Cn1c(=O)c2[nH]c(CN3CCN(Cc4ccccc4)CC3)nc2n(C)c1=O | inactive: -10.6% | –
CCOC(=O)N1CCC(NC(=O)CCS(=O)(=O)c2ccc3c(c2)CCN3C(=O)CC)CC1 | inactive: -2.6% | –
Brc1ccc2c(c1)C(c1ccc(N3CCOCC3)cc1)=NNC(c1cccs1)=N2 | – | inconclusive: 23.1 µM [inhibitor, single point]

A different layout for some results above:
Compound,"activity change, negative = inhibition",Potency
COc1cccc(C2c3[nH]c4ccccc4c3CCN2Cc2cccn2-c2ncccn2)c1 (stereo not drawn),–,"inconclusive: 18.3 µM [inhibitor, single point]"
O=C1CCN(CCc2ccccc2)CCN1[C@H](COc1ccccc1)Cc1ccccc1,inactive: -10.5%,–
